Assay results reported in US7361664B2, “Vitamin D receptor antagonists and related compositions and methods of use” (The United States of America as represented by the …, priority 2001, dated 2008).

Assay: Serum 25-OH-D3 and calcitriol levels on vitamin D diets
Format: in vivo, athymic mice

Substance: vitamin D
- serum 25-OH-D3 (diet with 4 mg/kg vitamin D): approx. 34 pg/ml
- serum calcitriol (diet with 4 mg/kg vitamin D): approx. 370 pg/ml
- serum 25-OH-D3 (diet with 40 mg/kg vitamin D): approx. 73 pg/ml
- serum calcitriol (diet with 40 mg/kg vitamin D): approx. 70 pg/ml
- serum 25-OH-D3 (normal diet with 6.6 mg/kg vitamin D): approx. 18 pg/ml
